# Results from PMC3895043.
# Protein sequences, listed by entry. Tags and fused reporters are not part of them.
# UniProt P43588: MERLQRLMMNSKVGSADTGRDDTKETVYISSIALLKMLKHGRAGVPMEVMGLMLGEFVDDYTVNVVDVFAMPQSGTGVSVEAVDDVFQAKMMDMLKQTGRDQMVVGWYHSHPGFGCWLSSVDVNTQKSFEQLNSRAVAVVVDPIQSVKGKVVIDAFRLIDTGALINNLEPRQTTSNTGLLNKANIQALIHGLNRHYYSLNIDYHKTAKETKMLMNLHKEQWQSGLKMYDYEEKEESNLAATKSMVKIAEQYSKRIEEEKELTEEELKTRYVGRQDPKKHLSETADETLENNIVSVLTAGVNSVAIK
# Results are given in words; binding and its absence hold for the method and conditions named. In cells and extracts the contact can be indirect. Some results given as binding are weak or reduced against the parent protein; the word gives no strength.
# Key:
# [1] = biological target: Rpn11-ProteinA tagged subunit of the proteasome (S. cerevisiae) (UniProt P43588); experiment: pull-down; RP purified via Rpn11-ProteinA from wild-type and ccr4Δ cells under high salt; western blot of the purified material with anti-Rpt1 and anti-α1-7; in-gel activity on a 3-12% native gel
# [2] = biological target: Rpn11-ProteinA tagged subunit of the proteasome (S. cerevisiae) (UniProt P43588); experiment: pull-down; RP purified via Rpn11-ProteinA from caf1Δ and not4Δ cells under high salt; western blot of the purified material with anti-Rpt1 and anti-α1-7; in-gel activity on a 3-12% native gel
binder,measurement,setting,value
"Rpt1 (protein, UniProt P33299 1-467) MPPKEDWEKYKAPLEDDDKKPDDDKIVPLTEGDIQVLKSYGAAPYAAKLKQTENDLKDIEARIKEKAGVKESDTGLAPSHLWDIMGDRQRLGEEHPLQVARCTKIIKGNGESDETTTDNNNSGNSNSNSNQQSTDADEDDEDAKYVINLKQIAKFVVGLGERVSPTDIEEGMRVGVDRSKYNIELPLPPRIDPSVTMMTVEEKPDVTYSDVGGCKDQIEKLREVVELPLLSPERFATLGIDPPKGILLYGPPGTGKTLCARAVANRTDATFIRVIGSELVQKYVGEGARMVRELFEMARTKKACIIFFDEIDAVGGARFDDGAGGDNEVQRTMLELITQLDGFDPRGNIKVMFATNRPNTLDPALLRPGRIDRKVEFSLPDLEGRANIFRIHSKSMSVERGIRWELISRLCPNSTGAELRSVCTEAGMFAIRARRKVATEKDFLKAVDKVISGYKKFSSTSRYMQYN",binding,[1],binds
same,binding,[2],binds
